Measured values taken from PubChem BioAssay AID504842 (National Center for Advancing Translational Sciences (NCATS), 2011).
Among all 330,000 compounds or so, about 100 (0.03%) were called active. Inconclusive means that the source gave no clear call. Such entries were picked first, then a sample of the others. Calls follow the shape of the dose curve; as a rule, active = well fitted inhibition curve with a large enough effect; inconclusive = small, poorly fitted or top-dose-only effect; inactive = flat fitted curve, though single readings scatter. A potency beside an inconclusive call is a rough fit, not a confirmed value.
% is scaled to controls: 0 for no effect and ±100 for the full control effect; potency is read from the fitted curve at half-maximal effect.
Also: nearly all actives have a fitted effect of over 80% in size.
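For potency in this document: enzyme at 25 nM with ATP substrate at 10 µM during the reaction.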

What follows are molecules tested on Chaperonin Mm-Cpn (Methanococcus maripaludis) (assay: Inhibitors of TCP-1 ring complex (TRiC) of Methanococcus maripaludis (MmCpn): qHTS). Settings: purified Mm-Cpn ATPase, ADP Transcreener TR-FRET.
From the text: The eukaryotic chaperonin TRiC (for TCP-1 ring complex) is an essential and conserved chaperone required for the folding and activation of 10-15% of the proteins encoded by the human genome. […] The TRiC complex consist of two stacked 7-9 membered rings, each containing a central cavity. Substrates are folded within the cavity in an ATP-dependent manner. TRiC is a complex of eight different, essential proteins. As each of the genes encoding the eight subunits is essential for cell viability and no protocol has been developed to over-express this enzyme to high levels. That is why several groups studying the TRiC chaperonin have turned to the archaeal homolog of TRiC, Methanococcus maripaludis (Mm-CPN), and have used this enzyme as a model system for the study of the type II chaperonin family. Small molecule inhibitors of the Mm-CPN enzyme would be extremely useful to study the mechanism of chaperonin activity. Importantly, TRiC and Mm-CPN both require ATP hydrolysis for function. Furthermore, the ATP binding sites are highly conserved among these type II chaperonins. This provides us with an easy, well tested and straightforward assay to identify inhibitors of chaperonin activity. The Mm-CPN assay was developed in 1536-well plate format using the HTRF Transcreener ADP assay kit (Cisbio, Bedford, MA). This assay applied the time resolved fluorescence resonance energy transfer (TR-FRET) principle. ATP in the presence of Mm-CPN is converted to ADP + Pi. An antibody labeled with Eu3+-Cryptate specific and bound to ADP labeled with […] (d2) competes with the unlabeled ADP generated by Mm-CPN. The resulting TR-FRET signal is inversely proportional to the concentration of ADP in the sample. In this assay a reduction in TR-FRET signal is observed with ATP turnover. NIH Chemical Genomics Center [NCGC] NIH Molecular Libraries Probe Centers Network [MLPCN] MLPCN Grant: DA030554-01A1 Assay Submitter (PI): Judith Frydman, Stanford University
Purified Mm-CPN was supplied by the laboratory of Dr. Judith Frydman. Protein samples were stored at -80C as single use aliquots. Protein was thawed in ambient temperature water bath and placed on ice once thawed. Buffer was prepared fresh day of screen. The buffer composition below was used to prepare the working solution of the Mm-CPN protein and ATP substrate. The buffer is comprised of 30 mM TRIS pH 7.4, 100mM KCl, 5mM MgCl2, and 1mM DTT. A final concentration of 25nM Mm-CPN and 10uM ATP per well were used in the screen. Instructions according to the manufacturer were followed for the ADP Transcreener kit. Used 1536 well Greiner white, medium binding (MB), solid bottom plates. Plates were read on the PerkinElmer EnVision plate reader using Excitation = 320 nm and Emission = […], 665 nm. Protocol- 1.Dispense 1.5ul per well of working [Mm-CPN] = 50nM (or 75 ng / well) 2.Spin plate at 1000 rpm for 30 seconds 3.23nl of compound transferred per well 4.Incubate at 37degC for 10 minutes 5.Dispense 1.5ul per well of working [ATP] = 20uM 6.Incubate at 37degC for 30 minutes 7.Dispense 3ul per well of Anti-ADP Cryptate / ADP-d2 mix (prepared as instructed by Cisbio) 8.Incubate at ambient for 30 minutes 9.Read using EnVision
Nc1c(C(=O)NCC2CCCO2)c2nc3ccccc3nc2n1Cc1ccco1 (stereo unspecified) was tested, and the Potency was “inactive”. In the case of CCOP(=S)(OCC)N1CCOCCOCCN(P(=S)(OCC)OCC)CCOCCOCC1, the Potency is reported as “inactive”. In the case of Clc1cccc(N2CCNCC2)c1, the Potency is reported as “inactive”. For O=C(N=Nc1c(O)[nH]c(=O)[nH]c1=O)C1COc2cc3ccccc3cc2O1 (stereo unspecified), the Potency was “inactive”. In the case of c1ccc2ncccc2c1, the Potency is reported as inconclusive: 100 µM [inhibitor, single point]. For C=CCn1c(O)c(/C=C2\C=Nc3ccccc32)c(=O)[nH]c1=O, the Potency was inconclusive: 100 µM [inhibitor, single point]. In the case of O=C(Nc1nnc(SCc2ccccc2Cl)s1)C1COc2ccccc2O1 (stereo unspecified), the Potency is reported as inconclusive: 17.8 µM [inhibitor, single point]. CCOc1ccc(-c2cc(C)[n+](CCO)c(-c3ccc(OCC)cc3)c2)cc1 was tested, and the Potency was “inactive”. O=NN1CCCCC1 was tested, and the Potency was inconclusive: 35.5 µM [inhibitor, single point]. With O=C(COC(=O)Cc1ccccc1)Nc1ccc(Cl)cn1 the Potency was inconclusive: 11.2 µM [inhibitor, partial curve, poor fit]. In the case of C=C1C(=O)O[C@@H]2C[C@@H](C)[C@@H]3C=CC(=O)[C@@]3(C)[C@@H](O)[C@H]12, the Potency is reported as “inactive”. In the case of O=c1[nH]c(=O)n(C2CCCCC2)c(O)c1C1NCCc2ccccc21 (stereo unspecified), the Potency is reported as “inactive”. CCOC(=O)c1ccc(NC(=O)CCOc2ccc(C)cc2)cc1 was tested, and the Potency was inconclusive: 794 µM [inhibitor, partial curve, poor fit]. O=C(COc1ccc(Br)cc1)N1CCN(Cc2ccc3c(c2)OCO3)CC1 was tested, and the Potency was inconclusive: 5.62 µM [inhibitor, single point]. With C[C@]12CC[C@H](O)CC1=CCC1C2CC[C@@]2(C)C1CC[C@@H]2OCc1ccccc1 (stereo partly specified) the Potency was “inactive”. For C#C[C@@]1(O)CCC2C3CCC4=C/C(=N/OCC(=O)NC(C(=O)O)C(C)O)CC[C@]4(C)C3CC[C@@]21C (stereo partly specified), the Potency was “inactive”. CN(C)/C=C1/C(=O)NC(=O)N(CCNc2ncc(C(F)(F)F)cc2Cl)C1=O was tested, and the Potency was “inactive”. In the case of N#Cc1c(/N=C/c2c(O)n(Cc3ccco3)c(=O)[nH]c2=O)sc2c1CCCC2, the Potency is reported as inconclusive: 562 µM [inhibitor, partial curve, poor fit]. For CC[C@@H](C(N)=O)N1CCCC1=O, the Potency was inconclusive: 20 µM [inhibitor, single point]. COc1ccccc1CN1CCCC(C(=O)c2ccccc2OC)C1 (stereo unspecified) was tested, and the Potency was inconclusive: 14.1 µM [inhibitor, single point]. Cc1[nH]c2ccc(O)cc2c1CCN was tested, and the Potency was “inactive”. In the case of Cn1c(O)c(C(=NCCN2CCCCC2)c2ccccc2Cl)c(=O)n(C)c1=O, the Potency is reported as inconclusive: 20 µM [inhibitor, single point]. For CC(C(=O)N1CCC2(CC1)OCCO2)C1Sc2ccccc2NC1=O (stereo unspecified), the Potency was inconclusive: 22.4 µM [inhibitor, single point]. Clc1cc(Cl)cc(NC2=NCCS2)c1 was tested, and the Potency was inconclusive: 56.2 µM [inhibitor, single point]. CC1(C)CN(S(=O)(=O)OCC(Cl)(Cl)Cl)C(=O)N1 was tested, and the Potency was inconclusive: 89.1 µM [inhibitor, single point]. Cc1cc(OCC(=O)N2C[C@H]3C[C@@H](C2)c2cccc(=O)n2C3)c2c(C)c(C)c(=O)oc2c1 was tested, and the Potency was “inactive”. In the case of O=C1NC(=O)N(c2ccccc2)C(=O)/C1=C/c1ccc(Sc2ccccc2)o1, the Potency is reported as “inactive”. COC(=O)C1=C(c2ccc(OCc3ccccc3)cc2)C[C@@H]2CC[C@H]1N2C(=O)NCc1cccc(OC)c1 was tested, and the Potency was inconclusive: 398 µM [inhibitor, partial curve, poor fit]. In the case of C=C1[C@H]2CC[C@H]3[C@]4(C)C[C@H](O[C@@H]5OC(CO)[C@@H](OSOOO)[C@H](OS(=O)(=O)O)[C@H]5OC(=O)CC(C)C)C[C@@H](C(=O)O)[C@H]4CC[C@]3(C2)[C@H]1O (stereo partly specified), the Potency is reported as inconclusive: 224 µM [inhibitor, partial curve, poor fit]. COc1cc(/C=C(/C)[N+](=O)[O-])ccc1OCc1ccccc1Cl was tested, and the Potency was “inactive”. For COC(=O)C1=C(c2ccc(-c3ccccc3)c(F)c2)C[C@@H]2CC[C@H]1N2C(=O)N1CCCC1, the Potency was “inactive”. In the case of O=C(c1ccco1)c1cn(Cc2ccccc2Cl)c2ccccc12, the Potency is reported as “inactive”. With O=C(O)c1ccccc1O the Potency was inconclusive: 70.8 µM [inhibitor, single point]. With CC(Cl)(Cl)/C(=N/P(=S)(N1CCOCC1)N1CCOCC1)N1CCOCC1 the Potency was “inactive”. For CC(C)c1ccc(N2C(=O)NC(=O)/C(=C\C=C\c3ccco3)C2=O)cc1, the Potency was “inactive”. For Oc1ccccc1/C=N/NP(=S)(c1ccccc1)c1ccccc1, the Potency was “inactive”. In the case of CC/C(=N\Nc1ccccc1)c1c(O)n(-c2ccc(OC)cc2)c(=O)[nH]c1=O, the Potency is reported as “inactive”. In the case of COc1ccc(Sc2cnn(-c3ccccc3)c(=O)c2Cl)cc1, the Potency is reported as inconclusive: 158 µM [inhibitor, partial curve, poor fit]. With CN(C)c1ccc(/C=C/c2cc[n+](C)c3ccccc23)cc1 the Potency was inconclusive: 25.1 µM [inhibitor, partial curve, poor fit]. For O=c1[nH]c2ccccc2n1CCCN1CCC(n2c(=O)[nH]c3cc(Cl)ccc32)CC1, the Potency was “inactive”. With Cc1ccc(N)cc1N the Potency was “inactive”. For CC(=O)/C=C/c1ccccc1, the Potency was “inactive”. For Cc1nnc(NC(=O)Oc2ccccc2)s1, the Potency was inconclusive: 25.1 µM [inhibitor, single point]. For Cc1ccc(CN(Cc2ccccc2)C(=S)NCC(=O)N2CCC3(CC2)OCCO3)o1, the Potency was inconclusive: 22.4 µM [inhibitor, single point]. In the case of C[C@H]1CC[C@H]2NCCN[C@H]2C1, the Potency is reported as “inactive”. In the case of Cc1onc(-c2ccccc2Cl)c1C(=O)NCc1ccc2c(c1)cc(C)n2C, the Potency is reported as inconclusive: 63.1 µM [inhibitor, partial curve, poor fit]. With Cc1cnn(-c2cc(Oc3ccccc3)ncn2)c1 the Potency was inconclusive: 11.2 µM [inhibitor, single point]. In the case of Cn1nc(C(F)(F)F)c(-c2ccccc2)c1N, the Potency is reported as inconclusive: 17.8 µM [inhibitor, single point]. In the case of COC(=O)C1=C(c2ccc(C(C)=O)cc2)C[C@@H]2CC[C@H]1N2C(=O)NC1Cc2ccccc2C1, the Potency is reported as inconclusive: 25.1 µM [inhibitor, single point]. For Cc1ccccc1-n1c(-c2ccoc2)nc2ccccc2c1=O, the Potency was inconclusive: 63.1 µM [inhibitor, single point]. In the case of NC(=O)c1ccc(C(=O)Nc2ccc([As](=O)(O)O)cc2)cc1, the Potency is reported as “inactive”. For Cc1c(C(=O)N2CCC3(CC2)OCCO3)oc2ccc(S(=O)(=O)N3CCCCC3)cc12, the Potency was inconclusive: 17.8 µM [inhibitor, single point]. For COc1ccc2[nH]c(C)c(CCN3CCC(=O)C(C)C3C)c2c1 (stereo unspecified), the Potency was inconclusive: 56.2 µM [inhibitor, single point]. For O=C(N/N=C/c1c(O)n(C2CC2)c(=S)[nH]c1=O)c1ccccc1O, the Potency was “inactive”. With CN(CC(=O)Nc1ccccc1-c1ccccc1)C1CCCCC1 the Potency was “inactive”. In the case of CN1CC[C@@]23CCCC[C@@H]2[C@@H]1Cc1ccc(O)cc13, the activity, negative = inhibition is reported as inactive: -3.82% [at 15.4 µM]. In the case of C=CCN1CC[C@]23c4c5ccc(O)c4OC2C(=O)CC[C@@]3(O)C1C5 (stereo partly specified), the Potency is reported as inconclusive: 15.8 µM [inhibitor, single point]. With COc1ccc2c(CN3CC=C(c4ccccc4)CC3)cc(=O)oc2c1 the Potency was inconclusive: 79.4 µM [inhibitor, single point]. CCOC(=O)C1(CCc2ccccc2)CCN(Cc2ccc(NC(C)=O)cc2)CC1 was tested, and the Potency was “inactive”. For COc1cccc(-c2sc3ccccc3c2-c2ccc(OCCN3CCOCC3)cc2)c1, the Potency was inconclusive: 316 µM [inhibitor, partial curve, poor fit]. COc1ccc(/C=C/C(=O)c2c(O)n(CCC3=CCCCC3)c(=O)[nH]c2=O)cc1OC was tested, and the Potency was inconclusive: 100 µM [inhibitor, single point]. Cc1cc(C)nc(N2Cc3ccccc3C2=N)n1 was tested, and the Potency was inconclusive: 22.4 µM [inhibitor, single point]. In the case of N/C(=N/[N+](=O)[O-])N1CCN(C(=O)Oc2ccc([N+](=O)[O-])cc2)CC1, the Potency is reported as inconclusive: 100 µM [inhibitor, single point]. For Cc1c(C=C2C(=O)N(C)C(=S)N(C)C2=O)c2ccccc2n1CC(=O)NCC1CCCO1 (stereo unspecified), the Potency was inconclusive: 112 µM [inhibitor, partial curve, poor fit]. With Cc1ccc(N2C(=O)NC(=O)/C(=C/C=C/c3ccco3)C2=O)cc1 the Potency was “inactive”. C=C[C@H](Cc1ccccc1)N(Cc1ccccc1)S(=O)(=O)N(Cc1ccccc1)[C@H](C=C)Cc1ccccc1 was tested, and the Potency was inconclusive: 12.6 µM [inhibitor, single point]. For CSC1=NP(=S)(SC)N(C)c2nc3n(c21)CCC3 (stereo unspecified), the Potency was inconclusive: 224 µM [inhibitor, partial curve, poor fit]. In the case of CCCCC(=O)N/N=C/c1c(O)n(CCCC)c(=S)[nH]c1=O, the Potency is reported as inconclusive: 100 µM [inhibitor, partial curve, poor fit]. CN1OC[C@@H]2COc3ccc4ccccc4c3[C@@H]21 was tested, and the Potency was inconclusive: 15.8 µM [inhibitor, single point]. In the case of C=CCN1C(=O)NC(=O)/C(=C/c2ccc(N(C)C)c(Br)c2)C1=O, the Potency is reported as inconclusive: 14.1 µM [inhibitor, single point]. In the case of CN(C)c1ccc(NC(=O)CN2C(=O)CN=C(c3ccccc3)c3cc(Cl)ccc32)cc1, the Potency is reported as inconclusive: 56.2 µM [inhibitor, single point].
